# Test results taken from PubChem BioAssay AID2685 (National Center for Advancing Translational Sciences (NCATS), 2010).
# This is one part of the list. Further columns of the screen follow, without active or inactive calls. The list favours compounds with an active or inconclusive main result. Potencies come from curve fits of mixed quality, noted in brackets.
# Experiment: qHTS Assay for Lipid Storage Modulators in Drosophila S3 Cells;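 as to cell number change: cells counted by Cell Tracker Red CMTPX staining in the red channel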
# Conditions: BODIPY lipid droplet fluorescence, 18-24 h; for cell number change: measured here: cell count max response, cells fed with added oleic acid
# Summary of the method: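 Laser-scanning cytometry quantifies lipid droplet accumulation (500–530 nm total intensity; droplet/cell object ratio) in oleic acid-fed (400 uM added) Drosophila S3 cells treated with a concentration series. 20 uM Triacsin C defined 100% inhibition.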
# [1] = measured here: lipid fluorescence (Fed channel) AC50, cells fed with added oleic acid
# [2] = measured here: cell number channel AC50, cells fed with added oleic acid
SMILES,cell number change,AC50 [1],AC50 [2]
Cc1cc(C)cc(Oc2c(C(F)(F)F)oc3cc(OCC(=O)O)ccc3c2=O)c1,1.14%,"0.731 µM [falling, single point]",–
Cc1ccc(S(=O)(=O)Nc2nonc2C)cc1,-6.13%,"0.103 µM [falling, full curve, poor fit]",–
CC1Cc2ccccc2N1C(=O)COC(=O)c1ccc(N(C)C)cc1 (stereo not drawn),3.76%,–,–
CCOc1ccccc1/C=C(\C#N)C(=O)Nc1cccc(C(=O)O)c1,-16%,"32.6 µM [falling, partial curve, poor fit]",–
Cc1onc(-c2c(F)cccc2Cl)c1C(=O)NCc1ccccn1,-0.485%,"0.103 µM [falling, full curve, poor fit]",–
O=C(Nc1cccc(S(=O)(=O)N2CCCCCC2)c1)C1CCN(C(=O)c2ccc(F)cc2)CC1,-32.4%,"25.9 µM [falling, single point]",–
CC(C)Cn1c(O)c(N=NC(=O)c2cccc(S(=O)(=O)N3CCCCC3)c2)c2ccccc21,15.9%,"32.6 µM [falling, single point]",–
O=C1N=C(N2CCOCC2)S/C1=C1\C(=O)N(Cc2ccccc2)c2ccccc21,0.455%,–,–
Cn1c(=O)c2c(SCc3cccnc3)nc(CC(C)(C)C)nc2n(C)c1=O,–,"2.31 µM [rising, partial curve, poor fit]",–
COc1cccc(-c2nc(CS(=O)CC(=O)NCc3ccccc3Cl)c(C)o2)c1 (stereo not drawn),25.2%,"29.1 µM [rising, single point]",–
O=C(COC(=O)c1n[nH]c2ccccc12)Nc1ccc(Cl)cc1[N+](=O)[O-],8.92%,–,–
Fc1ccc(-n2cc(CNCCc3ccccn3)c(-c3ccccc3Cl)n2)cc1,18.5%,–,"0.00517 µM [rising, full curve, poor fit]"
COc1ccc(-c2cc(C(=O)NCCN3CCOCC3)c3ccccc3n2)cc1,20.5%,–,–
COC(=O)c1cc(OC)c(OCc2cc(C(=O)OC)oc2C)c(OC)c1,-99%,"0.58 µM [falling, single point]","6.51 µM [rising, single point]"
Cc1cccc(OCC(O)CN2C(C)(C)CC(O)CC2(C)C)c1 (stereo not drawn),-176%,"20.6 µM [falling, partial curve]","16.4 µM [falling, partial curve]"
CCCCOc1ccc(C(=O)NNC(=O)C2C3CCC(C3)C2C(=O)O)cc1 (stereo not drawn),-24%,"18.4 µM [falling, single point]",–
CCC(=O)Nc1ccc(N2CCN(C(=O)c3ccco3)CC2)c(Cl)c1,-10.2%,–,–
COc1ccc(C2C(C(=O)/C=C/c3ccco3)=C(O)C(=O)N2CCN2CCOCC2)cc1 (stereo not drawn),10.9%,"6.51 µM [falling, partial curve, poor fit]","0.58 µM [falling, full curve]"
O=C(CN1CCC(Cc2ccccc2)CC1)Nc1ccc2c(c1)OCCO2,8.33%,"0.164 µM [falling, full curve]",–
Cc1cccn2c(CNCC(C)Oc3cccnc3)c(C(=O)N3CCOCC3)nc12 (stereo not drawn),21.3%,"0.0184 µM [rising, full curve, poor fit]",–
CCN=C1SC(CC(=O)NCC)C(=O)N1CC (stereo not drawn),-68.7%,"23.1 µM [falling, partial curve]","25.9 µM [falling, partial curve, poor fit]"
CCCCCCCc1c(C)nc(N2CCOCC2)[nH]c1=O,16.8%,"0.0651 µM [falling, full curve, poor fit]",–
CC1CCCN(c2ccc(C(=O)Nc3cccnc3)cc2[N+](=O)[O-])C1 (stereo not drawn),6.34%,"0.231 µM [rising, full curve, poor fit]",–
O=C(CSC1=NCCN1)Nc1ccccc1[N+](=O)[O-],-11.8%,–,–
O=C1CNC(=O)/C1=C/c1ccc(O)cc1,37.5%,"29.1 µM [rising, single point]","29.1 µM [rising, single point]"
COCCCNC(=S)N1CCN(c2nc(-c3cccc(OC)c3)cs2)CC1,-33.3%,"13 µM [falling, partial curve]","7.31 µM [falling, partial curve, poor fit]"
Cn1nc(C(=O)NC2CCCN(Cc3ccccc3F)C2)c2ccccc2c1=O (stereo not drawn),–,–,"6.51 µM [rising, single point]"
CCOc1c(CNCCCSc2nc(C)cc(C)n2)cccc1OC,-11%,"23.1 µM [falling, partial curve, poor fit]",–
COc1cc2c(cc1OC)CN(S(=O)(=O)/C=C/c1ccccc1)CC2,–,–,"0.0461 µM [rising, partial curve, poor fit]"
COc1ccc(OC)c2sc(Cl)nc12,30.5%,"16.4 µM [rising, partial curve]","16.4 µM [rising, single point]"

# Arranged by length of the SMILES (descending): part of the list above.
SMILES,cell number change,AC50 [1],AC50 [2]
CCCCOc1ccc(C(=O)NNC(=O)C2C3CCC(C3)C2C(=O)O)cc1 (stereo not drawn),-24%,"18.4 µM [falling, single point]",–
Cc1cccc(OCC(O)CN2C(C)(C)CC(O)CC2(C)C)c1 (stereo not drawn),-176%,"20.6 µM [falling, partial curve]","16.4 µM [falling, partial curve]"
CCOc1c(CNCCCSc2nc(C)cc(C)n2)cccc1OC,-11%,"23.1 µM [falling, partial curve, poor fit]",–
